For assay [1], the target named is MYC-tagged PI4K2A, full-length (1–479) (human) (UniProt Q9BTU6). Put plainly: co-IP; H1299 cells transfected with MYC-tagged PI4K2A constructs; RIPA lysis; Protein G agarose; WB; IgG control IP.
Assay [2] concerns the target hemagglutinin-tagged (HA-tagged) PI4K2A (human) (UniProt Q9BTU6). Put plainly: co-IP; anti-HA immunoprecipitates from H1299 cells transfected with HA-tagged PI4K2A; RIPA lysis; Protein G agarose; WB; IgG control IP.
In assay [3] the target is biotin-labeled recombinant SPP1 (UniProt P10451). The assay can be described thus: pull-down; biotin-labeled recombinant SPP1 added to the culture medium of H1299 cells (100 ng/mL) for 4 hours; cells lysed in RIPA buffer; streptavidin agarose beads; WB; only the target purified.

Protein sequences, listed by entry. Tags and fused reporters are not part of them. Lines headed by an entry give the natural chain unless they say otherwise; changes in a name come on top. Residues count along the entry.
UniProt Q9BTU6: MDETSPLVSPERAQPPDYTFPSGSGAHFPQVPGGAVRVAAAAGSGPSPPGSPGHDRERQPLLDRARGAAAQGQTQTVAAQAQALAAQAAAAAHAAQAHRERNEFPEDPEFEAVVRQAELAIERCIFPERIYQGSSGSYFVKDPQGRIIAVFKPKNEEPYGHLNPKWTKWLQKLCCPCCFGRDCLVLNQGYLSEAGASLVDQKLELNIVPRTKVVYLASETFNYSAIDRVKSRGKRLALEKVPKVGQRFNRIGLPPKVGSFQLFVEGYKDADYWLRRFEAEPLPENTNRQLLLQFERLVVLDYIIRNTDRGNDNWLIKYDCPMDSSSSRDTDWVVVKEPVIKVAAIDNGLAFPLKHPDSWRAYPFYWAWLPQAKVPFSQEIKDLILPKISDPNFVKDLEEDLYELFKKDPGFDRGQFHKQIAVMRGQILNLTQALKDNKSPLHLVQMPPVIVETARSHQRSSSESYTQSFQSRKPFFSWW
UniProt P10451, residues 17-314: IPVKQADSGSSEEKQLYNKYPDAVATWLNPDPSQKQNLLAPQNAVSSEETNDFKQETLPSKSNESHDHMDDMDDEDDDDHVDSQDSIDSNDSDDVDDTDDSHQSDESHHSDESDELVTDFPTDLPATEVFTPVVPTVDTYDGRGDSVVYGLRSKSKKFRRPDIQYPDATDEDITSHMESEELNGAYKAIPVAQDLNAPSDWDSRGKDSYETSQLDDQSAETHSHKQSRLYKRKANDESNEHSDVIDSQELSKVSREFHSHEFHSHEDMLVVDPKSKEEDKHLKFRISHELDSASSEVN
UniProt P35579: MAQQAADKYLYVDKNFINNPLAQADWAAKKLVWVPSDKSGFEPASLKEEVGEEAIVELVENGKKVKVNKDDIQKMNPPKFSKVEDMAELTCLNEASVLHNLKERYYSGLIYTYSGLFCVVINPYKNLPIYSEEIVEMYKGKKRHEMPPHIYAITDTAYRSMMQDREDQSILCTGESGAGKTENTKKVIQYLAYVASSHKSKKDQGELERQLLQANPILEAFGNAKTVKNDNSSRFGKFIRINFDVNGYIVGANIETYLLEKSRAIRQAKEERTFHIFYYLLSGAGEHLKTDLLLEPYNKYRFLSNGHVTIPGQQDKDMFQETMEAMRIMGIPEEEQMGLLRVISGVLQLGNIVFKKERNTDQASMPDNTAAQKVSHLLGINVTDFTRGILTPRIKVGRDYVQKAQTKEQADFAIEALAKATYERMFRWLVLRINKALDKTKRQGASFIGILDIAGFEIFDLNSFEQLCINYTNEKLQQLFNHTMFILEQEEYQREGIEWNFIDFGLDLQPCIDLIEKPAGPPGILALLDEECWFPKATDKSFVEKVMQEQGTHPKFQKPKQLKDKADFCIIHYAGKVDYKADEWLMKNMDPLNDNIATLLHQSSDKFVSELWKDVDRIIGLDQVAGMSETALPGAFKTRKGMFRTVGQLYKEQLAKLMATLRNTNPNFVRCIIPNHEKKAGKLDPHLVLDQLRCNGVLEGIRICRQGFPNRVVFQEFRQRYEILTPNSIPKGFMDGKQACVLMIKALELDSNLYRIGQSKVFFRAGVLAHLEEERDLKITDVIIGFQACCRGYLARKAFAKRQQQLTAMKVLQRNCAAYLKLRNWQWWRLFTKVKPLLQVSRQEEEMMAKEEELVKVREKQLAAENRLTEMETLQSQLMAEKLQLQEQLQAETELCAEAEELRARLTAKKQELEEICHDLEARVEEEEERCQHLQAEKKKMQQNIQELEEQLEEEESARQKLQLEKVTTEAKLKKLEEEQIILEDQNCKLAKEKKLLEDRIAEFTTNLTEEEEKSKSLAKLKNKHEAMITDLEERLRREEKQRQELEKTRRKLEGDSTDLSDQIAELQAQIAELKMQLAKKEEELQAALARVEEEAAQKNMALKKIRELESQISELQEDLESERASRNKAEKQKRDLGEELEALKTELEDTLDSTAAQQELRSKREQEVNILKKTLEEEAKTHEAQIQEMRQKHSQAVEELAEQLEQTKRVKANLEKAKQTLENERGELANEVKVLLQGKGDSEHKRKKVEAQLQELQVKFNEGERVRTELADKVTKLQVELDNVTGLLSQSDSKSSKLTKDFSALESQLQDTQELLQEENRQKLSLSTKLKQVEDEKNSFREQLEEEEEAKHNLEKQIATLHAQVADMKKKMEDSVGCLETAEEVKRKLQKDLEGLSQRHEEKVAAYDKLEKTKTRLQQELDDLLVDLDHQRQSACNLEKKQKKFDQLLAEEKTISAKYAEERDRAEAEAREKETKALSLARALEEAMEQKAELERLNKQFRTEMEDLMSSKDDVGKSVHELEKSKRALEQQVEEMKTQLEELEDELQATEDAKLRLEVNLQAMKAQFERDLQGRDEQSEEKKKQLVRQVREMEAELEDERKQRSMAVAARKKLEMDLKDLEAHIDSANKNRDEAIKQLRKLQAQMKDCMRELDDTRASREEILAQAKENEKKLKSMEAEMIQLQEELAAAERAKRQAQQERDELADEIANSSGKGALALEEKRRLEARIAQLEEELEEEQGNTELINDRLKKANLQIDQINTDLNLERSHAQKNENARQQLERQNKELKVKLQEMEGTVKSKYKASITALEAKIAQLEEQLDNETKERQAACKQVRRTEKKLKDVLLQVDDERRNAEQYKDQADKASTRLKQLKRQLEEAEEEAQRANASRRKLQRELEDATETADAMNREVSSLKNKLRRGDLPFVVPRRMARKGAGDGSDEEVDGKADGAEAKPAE
UniProt P05556: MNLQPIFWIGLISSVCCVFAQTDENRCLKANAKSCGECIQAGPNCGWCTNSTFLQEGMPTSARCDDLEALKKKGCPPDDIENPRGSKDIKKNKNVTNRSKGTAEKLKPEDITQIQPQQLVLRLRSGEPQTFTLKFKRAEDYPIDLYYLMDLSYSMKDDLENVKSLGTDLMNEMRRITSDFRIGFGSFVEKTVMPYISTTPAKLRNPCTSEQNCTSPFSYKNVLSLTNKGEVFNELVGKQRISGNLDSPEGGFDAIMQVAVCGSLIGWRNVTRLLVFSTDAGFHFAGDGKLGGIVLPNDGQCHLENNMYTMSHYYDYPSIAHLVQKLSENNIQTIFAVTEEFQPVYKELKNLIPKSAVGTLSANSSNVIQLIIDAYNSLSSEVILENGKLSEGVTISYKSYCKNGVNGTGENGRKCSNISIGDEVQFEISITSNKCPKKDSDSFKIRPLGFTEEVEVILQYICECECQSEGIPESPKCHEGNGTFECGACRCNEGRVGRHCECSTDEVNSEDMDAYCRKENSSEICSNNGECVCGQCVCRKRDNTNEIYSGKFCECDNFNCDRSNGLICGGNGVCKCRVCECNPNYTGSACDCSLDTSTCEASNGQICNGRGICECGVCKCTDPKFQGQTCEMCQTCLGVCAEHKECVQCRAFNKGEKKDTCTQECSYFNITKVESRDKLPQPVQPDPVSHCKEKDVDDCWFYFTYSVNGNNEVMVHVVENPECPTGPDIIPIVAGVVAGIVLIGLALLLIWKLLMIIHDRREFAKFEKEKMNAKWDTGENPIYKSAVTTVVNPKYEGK
UniProt P16070, residues 21-742: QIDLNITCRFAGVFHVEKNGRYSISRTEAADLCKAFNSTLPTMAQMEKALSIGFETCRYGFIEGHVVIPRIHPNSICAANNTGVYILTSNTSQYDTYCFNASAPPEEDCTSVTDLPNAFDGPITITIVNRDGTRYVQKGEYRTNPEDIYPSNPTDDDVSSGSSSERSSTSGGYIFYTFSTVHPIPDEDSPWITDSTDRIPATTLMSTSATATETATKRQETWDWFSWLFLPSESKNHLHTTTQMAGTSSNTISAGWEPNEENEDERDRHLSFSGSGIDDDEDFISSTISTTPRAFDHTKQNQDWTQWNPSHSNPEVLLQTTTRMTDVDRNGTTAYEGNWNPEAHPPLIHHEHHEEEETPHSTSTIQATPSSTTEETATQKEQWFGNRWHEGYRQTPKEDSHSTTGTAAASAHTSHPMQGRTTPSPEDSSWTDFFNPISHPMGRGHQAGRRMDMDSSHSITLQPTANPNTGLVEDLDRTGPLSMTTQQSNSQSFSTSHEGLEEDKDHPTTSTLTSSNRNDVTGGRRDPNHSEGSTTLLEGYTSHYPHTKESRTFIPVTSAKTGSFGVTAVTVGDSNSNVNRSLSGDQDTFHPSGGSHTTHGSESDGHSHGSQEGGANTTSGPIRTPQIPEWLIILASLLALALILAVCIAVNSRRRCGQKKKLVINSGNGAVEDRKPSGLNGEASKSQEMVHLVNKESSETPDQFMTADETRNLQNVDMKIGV

The results in this text go back to article PMC10065074.

No constants are given. Whether binding was seen depends on the method and setting. In cells and extracts the contact can be indirect. Some entries that bind do so weakly or less than the wild type.

Take “myosin heavy chain 9 (from UniProt P35579 1-1960)”: the binding entry in assay [1] was “binds”.
For “integrin-β1 (from UniProt P05556 21-798) (receptor)”, the binding entry in assay [2] and in assay [3] was “binds” throughout.
For the substance “CD44 molecule (from UniProt P16070 21-742) (receptor)”, the binding result in assay [2] and in assay [3] was “binds” in each case.
